Experimental data from the supplement of paper PMC10849652.
This is one part of the list. Residues, ends and D or L forms follow the SMILES beside them. *: point of attachment. Cbz = O=C(OCc1ccccc1)*

Protein sequences, listed by entry. Tags and fused reporters are not part of them. Lines headed by an entry give the natural chain unless they say otherwise; changes in a name come on top.
UniProt Q9NX40: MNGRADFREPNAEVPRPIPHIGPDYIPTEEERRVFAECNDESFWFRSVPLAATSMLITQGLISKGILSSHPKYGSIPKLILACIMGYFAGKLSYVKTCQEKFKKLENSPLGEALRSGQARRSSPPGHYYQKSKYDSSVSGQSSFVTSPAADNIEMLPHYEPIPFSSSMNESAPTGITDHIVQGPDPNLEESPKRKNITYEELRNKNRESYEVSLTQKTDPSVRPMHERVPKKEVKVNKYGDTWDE
UniProt O95989: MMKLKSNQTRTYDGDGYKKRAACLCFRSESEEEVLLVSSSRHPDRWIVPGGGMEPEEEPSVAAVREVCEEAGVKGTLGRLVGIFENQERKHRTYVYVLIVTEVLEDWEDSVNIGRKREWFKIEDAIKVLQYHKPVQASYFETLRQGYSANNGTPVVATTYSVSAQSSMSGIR
UniProt Q92882: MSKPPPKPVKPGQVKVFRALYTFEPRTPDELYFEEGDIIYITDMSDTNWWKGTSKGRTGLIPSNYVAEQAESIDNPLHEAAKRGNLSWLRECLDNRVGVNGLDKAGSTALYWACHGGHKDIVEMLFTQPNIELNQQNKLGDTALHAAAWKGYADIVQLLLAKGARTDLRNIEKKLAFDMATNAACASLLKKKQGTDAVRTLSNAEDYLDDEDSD
UniProt O43929: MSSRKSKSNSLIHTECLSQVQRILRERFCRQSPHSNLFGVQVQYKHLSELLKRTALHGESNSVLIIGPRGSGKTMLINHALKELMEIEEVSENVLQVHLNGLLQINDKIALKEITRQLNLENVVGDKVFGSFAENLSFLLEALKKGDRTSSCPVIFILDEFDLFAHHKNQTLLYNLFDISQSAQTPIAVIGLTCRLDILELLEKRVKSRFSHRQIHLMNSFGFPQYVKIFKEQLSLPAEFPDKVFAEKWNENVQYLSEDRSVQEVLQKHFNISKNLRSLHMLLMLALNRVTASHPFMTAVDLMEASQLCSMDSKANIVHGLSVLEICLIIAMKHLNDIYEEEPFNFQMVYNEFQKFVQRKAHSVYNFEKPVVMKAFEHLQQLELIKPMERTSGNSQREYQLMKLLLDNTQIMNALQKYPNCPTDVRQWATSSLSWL
UniProt Q9BXS6: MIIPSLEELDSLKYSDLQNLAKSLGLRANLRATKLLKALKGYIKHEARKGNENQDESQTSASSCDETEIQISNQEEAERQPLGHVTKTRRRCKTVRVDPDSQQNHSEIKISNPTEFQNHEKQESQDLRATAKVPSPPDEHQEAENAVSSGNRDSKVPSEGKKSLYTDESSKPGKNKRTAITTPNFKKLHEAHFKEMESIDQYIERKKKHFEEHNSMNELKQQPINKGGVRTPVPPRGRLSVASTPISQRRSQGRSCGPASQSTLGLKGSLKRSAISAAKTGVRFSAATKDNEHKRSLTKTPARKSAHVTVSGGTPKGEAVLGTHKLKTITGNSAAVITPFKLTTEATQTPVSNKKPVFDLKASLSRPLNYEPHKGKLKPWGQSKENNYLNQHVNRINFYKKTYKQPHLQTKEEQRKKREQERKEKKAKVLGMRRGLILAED
UniProt Q96HP4: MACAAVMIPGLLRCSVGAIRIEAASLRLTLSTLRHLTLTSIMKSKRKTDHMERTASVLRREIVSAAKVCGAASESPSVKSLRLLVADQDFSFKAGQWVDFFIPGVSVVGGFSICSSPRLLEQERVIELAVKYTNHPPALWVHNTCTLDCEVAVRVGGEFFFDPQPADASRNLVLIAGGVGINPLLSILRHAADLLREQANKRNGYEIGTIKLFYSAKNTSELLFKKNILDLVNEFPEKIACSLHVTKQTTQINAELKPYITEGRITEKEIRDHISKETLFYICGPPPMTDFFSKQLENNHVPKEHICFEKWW
UniProt Q01804: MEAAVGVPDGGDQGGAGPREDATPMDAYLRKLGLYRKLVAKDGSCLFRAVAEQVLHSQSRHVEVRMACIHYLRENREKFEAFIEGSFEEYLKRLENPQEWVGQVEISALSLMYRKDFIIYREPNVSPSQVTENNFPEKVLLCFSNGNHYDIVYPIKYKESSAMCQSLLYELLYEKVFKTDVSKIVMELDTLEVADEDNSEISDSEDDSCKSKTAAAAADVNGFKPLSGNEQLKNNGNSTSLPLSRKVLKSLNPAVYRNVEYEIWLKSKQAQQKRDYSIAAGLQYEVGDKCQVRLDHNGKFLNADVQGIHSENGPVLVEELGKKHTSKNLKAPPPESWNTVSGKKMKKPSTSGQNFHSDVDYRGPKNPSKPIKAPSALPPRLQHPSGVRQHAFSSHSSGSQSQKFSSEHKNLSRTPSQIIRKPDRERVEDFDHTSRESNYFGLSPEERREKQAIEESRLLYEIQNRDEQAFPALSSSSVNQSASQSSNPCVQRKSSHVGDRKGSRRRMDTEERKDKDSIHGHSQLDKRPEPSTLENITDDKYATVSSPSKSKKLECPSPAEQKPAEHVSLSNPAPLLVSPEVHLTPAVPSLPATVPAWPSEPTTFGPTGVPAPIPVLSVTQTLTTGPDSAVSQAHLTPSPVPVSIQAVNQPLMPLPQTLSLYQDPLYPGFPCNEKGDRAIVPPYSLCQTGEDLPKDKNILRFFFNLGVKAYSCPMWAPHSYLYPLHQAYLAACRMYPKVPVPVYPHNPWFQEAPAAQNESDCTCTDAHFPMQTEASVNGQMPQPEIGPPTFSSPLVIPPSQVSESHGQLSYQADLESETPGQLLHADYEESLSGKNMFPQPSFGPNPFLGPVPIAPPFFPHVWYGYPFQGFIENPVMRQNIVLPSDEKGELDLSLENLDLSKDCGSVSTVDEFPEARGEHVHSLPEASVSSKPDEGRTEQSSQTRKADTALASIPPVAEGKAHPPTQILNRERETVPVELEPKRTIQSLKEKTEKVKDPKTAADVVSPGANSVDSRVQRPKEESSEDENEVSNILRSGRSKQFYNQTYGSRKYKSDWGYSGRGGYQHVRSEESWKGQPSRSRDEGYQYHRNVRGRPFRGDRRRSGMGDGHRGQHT
UniProt Q9H857: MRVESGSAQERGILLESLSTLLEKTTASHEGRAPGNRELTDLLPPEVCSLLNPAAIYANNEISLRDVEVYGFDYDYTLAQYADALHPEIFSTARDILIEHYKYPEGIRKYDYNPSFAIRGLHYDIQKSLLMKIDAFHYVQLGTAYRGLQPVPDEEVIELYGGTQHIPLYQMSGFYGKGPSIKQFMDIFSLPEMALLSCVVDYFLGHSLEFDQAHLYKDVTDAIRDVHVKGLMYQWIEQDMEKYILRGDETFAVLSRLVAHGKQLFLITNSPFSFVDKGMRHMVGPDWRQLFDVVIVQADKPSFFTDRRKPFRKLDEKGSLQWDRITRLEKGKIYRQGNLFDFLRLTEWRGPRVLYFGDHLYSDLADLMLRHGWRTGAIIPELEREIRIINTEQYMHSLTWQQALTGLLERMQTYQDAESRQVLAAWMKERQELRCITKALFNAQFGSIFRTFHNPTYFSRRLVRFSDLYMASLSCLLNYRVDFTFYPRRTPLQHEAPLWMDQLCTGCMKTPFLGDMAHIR
UniProt O95747, whole entry, looked up: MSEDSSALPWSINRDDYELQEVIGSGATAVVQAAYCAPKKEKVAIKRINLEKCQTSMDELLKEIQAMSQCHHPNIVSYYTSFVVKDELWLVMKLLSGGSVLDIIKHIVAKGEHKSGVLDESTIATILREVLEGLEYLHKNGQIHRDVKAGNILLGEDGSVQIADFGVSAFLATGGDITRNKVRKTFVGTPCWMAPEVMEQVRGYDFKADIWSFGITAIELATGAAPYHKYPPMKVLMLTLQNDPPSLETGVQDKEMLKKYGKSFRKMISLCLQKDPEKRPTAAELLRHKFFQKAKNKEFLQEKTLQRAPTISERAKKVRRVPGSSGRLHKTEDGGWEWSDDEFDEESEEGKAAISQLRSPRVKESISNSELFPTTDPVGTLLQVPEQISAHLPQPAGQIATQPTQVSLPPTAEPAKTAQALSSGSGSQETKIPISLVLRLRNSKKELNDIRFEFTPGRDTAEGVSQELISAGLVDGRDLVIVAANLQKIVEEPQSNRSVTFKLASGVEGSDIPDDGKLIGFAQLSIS
UniProt Q9NXX6: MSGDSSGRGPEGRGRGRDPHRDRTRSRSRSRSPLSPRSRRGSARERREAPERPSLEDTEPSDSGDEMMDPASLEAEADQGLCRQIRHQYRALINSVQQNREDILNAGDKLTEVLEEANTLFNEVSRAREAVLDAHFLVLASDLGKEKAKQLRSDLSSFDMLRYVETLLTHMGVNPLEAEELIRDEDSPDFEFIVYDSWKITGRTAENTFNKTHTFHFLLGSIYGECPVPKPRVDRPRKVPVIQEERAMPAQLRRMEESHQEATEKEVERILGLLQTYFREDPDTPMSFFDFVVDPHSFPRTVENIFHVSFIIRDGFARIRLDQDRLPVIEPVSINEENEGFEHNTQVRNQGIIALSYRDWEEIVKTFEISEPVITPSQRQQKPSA
UniProt Q9NWU1, whole entry, looked up: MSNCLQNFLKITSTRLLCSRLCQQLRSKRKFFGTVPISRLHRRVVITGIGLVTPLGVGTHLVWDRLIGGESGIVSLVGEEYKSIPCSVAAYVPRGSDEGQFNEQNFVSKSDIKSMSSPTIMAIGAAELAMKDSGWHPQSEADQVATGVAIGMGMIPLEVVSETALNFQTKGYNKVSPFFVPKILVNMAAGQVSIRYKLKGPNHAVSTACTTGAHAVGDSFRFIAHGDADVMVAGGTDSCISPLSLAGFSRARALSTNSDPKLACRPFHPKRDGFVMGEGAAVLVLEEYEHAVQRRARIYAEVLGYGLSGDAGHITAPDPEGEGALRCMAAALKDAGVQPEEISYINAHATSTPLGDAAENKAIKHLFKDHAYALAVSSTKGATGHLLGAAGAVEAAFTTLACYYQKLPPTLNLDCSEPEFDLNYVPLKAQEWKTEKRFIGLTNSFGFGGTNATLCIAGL
UniProt Q9Y5A7: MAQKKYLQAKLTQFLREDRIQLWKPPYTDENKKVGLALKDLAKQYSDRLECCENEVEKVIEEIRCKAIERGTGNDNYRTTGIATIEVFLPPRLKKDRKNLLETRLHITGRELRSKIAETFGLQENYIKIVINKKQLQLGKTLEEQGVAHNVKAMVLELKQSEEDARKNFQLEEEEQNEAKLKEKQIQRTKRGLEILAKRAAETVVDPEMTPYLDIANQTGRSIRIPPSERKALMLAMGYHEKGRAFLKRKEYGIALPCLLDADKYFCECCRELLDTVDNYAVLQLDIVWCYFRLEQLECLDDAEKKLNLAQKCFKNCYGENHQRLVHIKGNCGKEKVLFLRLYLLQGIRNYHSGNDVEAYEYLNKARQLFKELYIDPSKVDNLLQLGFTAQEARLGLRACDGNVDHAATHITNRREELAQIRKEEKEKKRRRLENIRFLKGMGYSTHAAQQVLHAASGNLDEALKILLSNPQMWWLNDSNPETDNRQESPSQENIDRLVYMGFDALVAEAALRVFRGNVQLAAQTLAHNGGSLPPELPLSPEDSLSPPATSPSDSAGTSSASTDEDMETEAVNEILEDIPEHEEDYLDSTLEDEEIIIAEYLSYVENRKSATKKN
UniProt Q9NZT2: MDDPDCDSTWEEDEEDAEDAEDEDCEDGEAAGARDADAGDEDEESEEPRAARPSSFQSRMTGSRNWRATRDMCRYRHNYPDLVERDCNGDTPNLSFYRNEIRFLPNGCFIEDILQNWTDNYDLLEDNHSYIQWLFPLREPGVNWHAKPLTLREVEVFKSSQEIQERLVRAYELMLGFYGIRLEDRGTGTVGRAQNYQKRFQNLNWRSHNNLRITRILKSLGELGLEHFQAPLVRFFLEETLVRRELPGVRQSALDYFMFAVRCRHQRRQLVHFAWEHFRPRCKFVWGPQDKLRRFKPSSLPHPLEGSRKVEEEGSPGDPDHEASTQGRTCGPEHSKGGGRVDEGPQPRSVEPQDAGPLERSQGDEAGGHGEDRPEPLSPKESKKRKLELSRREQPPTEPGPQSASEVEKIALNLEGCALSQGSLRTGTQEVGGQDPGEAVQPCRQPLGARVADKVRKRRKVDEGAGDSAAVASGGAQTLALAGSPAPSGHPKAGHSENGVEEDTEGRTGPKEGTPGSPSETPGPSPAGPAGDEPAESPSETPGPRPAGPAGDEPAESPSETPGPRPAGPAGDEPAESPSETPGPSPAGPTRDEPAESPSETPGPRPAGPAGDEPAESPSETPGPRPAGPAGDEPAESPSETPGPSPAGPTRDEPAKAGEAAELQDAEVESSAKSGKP
UniProt Q9Y530: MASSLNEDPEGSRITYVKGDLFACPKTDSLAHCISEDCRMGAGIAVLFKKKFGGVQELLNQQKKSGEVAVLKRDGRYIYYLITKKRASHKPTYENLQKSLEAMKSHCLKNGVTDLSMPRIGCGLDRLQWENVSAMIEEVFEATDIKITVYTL

How the values were obtained:
Assay in all cases: log2 fold change, soluble protein after heating vs DMSO (PISA); higher = thermal stabilisation; K562 cells, 10 uM, 30 min; active = over 0.2 and 3.5 SD of the protein, either way, in both replicates (recomputed)
[1] = compound: C1COCCN1CCN2C3=CC=CC=C3N=C2NC(=O)C4=CC(=CC=C4)[N+](=O)[O-] [IRAK-1-4 Inhibitor I]
Summary of the method: (§1)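 Thermal stability values are relative to control samples and come from duplicates. They are expressed as log2 fold changes. For measurement, K562 cells (2×10^6 cells/mL) received 10 μM compound for 30 min, and aliquots were heated for 3 min over 48°C-58°C, pooled, and extracted at 4°C in PBS with 0.5% NP-40. Soluble protein, the supernatant after 21,000xg for 90 min, was quantified by TMTpro 16plex LC-MS/MS with equalised channel sums.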

[2] = compound: C=CC(=O)N1CCC[C@@H](n2nc(-c3ccc(Oc4ccccc4)cc3)c3c(N)ncnc32)C1 [ibrutinib]
Summary of the method: as §1

[3] = compound: CC(=O)c1cnc2ccc(-c3cc(Cl)c(O)c(Cl)c3)nc2c1N[C@H]1CC[C@H](CN(C)C)CC1
Summary of the method: as §1

[4] = compound: CC(C)(C)Cn1c(N)nc2ccc(-c3[nH]c(C(C)(C)C)nc3-c3ccc(F)cc3)nc21 [ralimetinib]
Summary of the method: as §1

[5] = compound: CC(C)(O)CC(=O)NCCn1ccc2ncnc(Nc3ccc(Oc4cccc(C(F)(F)F)c4)c(Cl)c3)c21
Summary of the method: as §1

[6] = compound: CC(C)C1=C2N=C(C=C(N2N=C1)NCC3=CC=CC=C3)NCCCCCCN
Summary of the method: as §1

[7] = compound: CC(C)C[C@@H](C=O)NC(=O)[C@H](CC(C)C)NC(=O)[C@H](CC(C)C)NC(=O)OCc1ccccc1
Summary of the method: as §1

[8] = compound: CC(C)N(C[C@H]1O[C@@H](n2cnc3c(N)ncnc32)[C@H](O)[C@@H]1O)[C@H]1C[C@@H](CCc2nc3cc(C(C)(C)C)ccc3[nH]2)C1 [pinometostat]
Summary of the method: as §1

[9] = compound: CC1=C(C(CC(=O)N1)C2=CC=C(C=C2)C(F)(F)F)C(=O)NC3=C(C=C4C(=C3)C=NN4)F
Summary of the method: as §1

[10] = compound: CC1=C(C2=C(C=C1)C(=O)C3=CC=CC=C3N2CCCN)C
Summary of the method: as §1

[11] = compound: CC1=C(C=C(C=C1)NC(=O)C2=CC(=CC=C2)C(C)(C)C#N)NC3=CC4=C(C=C3)N=CN(C4=O)C
Summary of the method: as §1

[12] = compound: CC1=C(C=C(C=C1)NC(=O)C2=CC(=CC=C2)N(C)C)NC(=O)C3=CC=C(C=C3)O
Summary of the method: as §1

[13] = compound: CC1=CC=C(C=C1)SC2=C3C=C(SC3=CN=C2)C(=O)N
Summary of the method: as §1

[14] = compound: CC1=NC(=CC=C1)C2=C(N=C(N2)C(C)(C)C)C3=CC4=NC=CN=C4C=C3
Summary of the method: as §1

[15] = compound: CCCCN(Cc1ccc(C(=O)NO)cc1)C(=O)Nc1ccccc1 [Nexturastat A]
Summary of the method: as §1

[16] = compound: CCCS(=O)(=O)Nc1ccc(F)c(C(=O)c2c[nH]c3ncc(-c4ccc(Cl)cc4)cc23)c1F [vemurafenib]
Summary of the method: as §1

[17] = compound: CCCS(=O)(=O)Nc1ccc(F)c(C(=O)c2c[nH]c3ncc(Cl)cc23)c1F
Summary of the method: as §1

[18] = compound: CCCc1cc(C)[nH]c(=O)c1CNC(=O)c1cc(-c2ccnc(N3CCN(C)CC3)c2)cc2c1cnn2C(C)C
Summary of the method: as §1

[19] = compound: CCN(CC)Cc1ccc2cc(COC(=O)Nc3ccc(C(=O)NO)cc3)ccc2c1 [givinostat]
Summary of the method: as §1

[20] = compound: CCN(CCCOc1ccc2c(Nc3cc(CC(=O)Nc4cccc(F)c4)[nH]n3)ncnc2c1)CCOP(=O)(O)O [barasertib]
Summary of the method: as §1

Measured: log2 fold change

OCIAD1 (UniProt Q9NX40)
inactive: [1] 0.035 | [2] 0.023 | [3] 0.02 | [4] -0.001 | [5] 0.02 | [6] -0.037 | [7] 0.006 | [8] -0.098 | [9] -0.041 | [10] 0.004 | [11] -0.043 | [12] -0.005 | [13] 0.005 | [14] 0.045 | [15] -0.065 | [16] 0.019 | [17] 0.003 | [18] -0.023 | [19] 0 | [20] -0.035

NUDT3 (UniProt O95989)
inactive: [1] 0.011 | [2] 0.007 | [3] -0.028 | [4] -0.075 | [5] 0.001 | [6] 0.012 | [7] -0.027 | [8] -0.052 | [9] 0.039 | [10] -0.017 | [11] 0.008 | [12] -0.034 | [13] -0.012 | [14] 0.02 | [15] -0.125 | [16] -0.012 | [17] -0.065 | [18] -0.044 | [19] -0.04 | [20] 0.019

OSTF1 (UniProt Q92882)
inactive: [1] -0.015 | [2] -0.1 | [3] -0.1 | [4] 0.029 | [5] -0.048 | [6] -0.183 | [7] -0.002 | [8] 0.056 | [9] 0 | [10] 0.067 | [11] -0.157 | [12] 0.009 | [13] -0.039 | [14] 0.008 | [15] 0.003 | [16] 0.011 | [17] -0.023 | [18] -0.011 | [19] 0.052 | [20] 0.049

ORC4 (UniProt O43929)
inactive: [1] -0.097 | [2] -0.072 | [3] -0.069 | [4] 0.013 | [5] -0.139 | [6] -0.201 | [7] 0.077 | [8] -0.011 | [9] -0.021 | [10] 0.072 | [11] 0.02 | [12] 0.004 | [13] 0.009 | [14] 0.04 | [15] -0.031 | [16] 0.087 | [17] 0.053 | [18] -0.06 | [19] 0.099 | [20] 0.054

NUSAP1 (UniProt Q9BXS6)
inactive: [1] -0.124 | [2] -0.017 | [3] 0.025 | [4] 0.193 | [5] 0.06 | [6] 0.035 | [7] 0.206 | [8] 0.223 | [9] -0.017 | [10] -0.118 | [11] 0.012 | [12] 0.015 | [13] -0.062 | [14] -0.113 | [15] 0.097 | [16] -0.031 | [17] -0.023 | [18] -0.273 | [19] 0.01 | [20] -0.044

OXNAD1 (UniProt Q96HP4)
inactive: [1] -0.009 | [2] 0.072 | [3] 0.022 | [4] -0.046 | [5] -0.005 | [6] 0.078 | [7] -0.03 | [8] 0.002 | [9] 0.002 | [10] 0.075 | [11] 0.011 | [12] 0.008 | [13] -0.024 | [14] 0.022 | [15] -0.065 | [16] 0.024 | [17] -0.029 | [18] -0.041 | [19] -0.001 | [20] 0.01

NUDT1 (UniProt P36639)
inactive: [1] 0.025 | [5] -0.263 | [7] -0.082 | [8] -0.017 | [10] 0.074 | [11] -0.016 | [12] -0.058 | [13] -0.064 | [14] -0.164 | [15] -0.086 | [16] -0.004 | [17] 0.209 | [18] -0.026 | [19] -0.042 | [20] -0.03
active: [2] 0.943 | [3] 0.816 | [4] 1.69 | [6] 0.946

OXR1 (UniProt Q8N573)
inactive: [1] 0.048 | [2] 0.016 | [3] -0.002 | [4] -0.019 | [5] -0.035 | [6] -0.077 | [7] -0.004 | [8] 0.023 | [10] 0.009 | [11] 0.005 | [12] -0.003 | [13] 0.005 | [14] 0.052 | [15] -0.025 | [16] 0.023 | [17] -0.013 | [18] -0.062 | [19] 0.012 | [20] 0.027

OTUD4 (UniProt Q01804)
inactive: [1] 0.007 | [2] 0.008 | [3] -0.029 | [4] 0.1 | [5] 0.013 | [6] 0.035 | [7] 0.052 | [8] 0.128 | [10] 0.244 | [11] -0.038 | [12] -0.017 | [13] -0.035 | [14] -0.069 | [15] 0.055 | [16] -0.016 | [17] 0.007 | [18] -0.03 | [19] 0.05 | [20] -0.083

NT5DC2 isoform 2 (UniProt Q9H857)
inactive: [1] 0.003 | [2] 0.034 | [3] -0.014 | [4] -0.009 | [5] -0.022 | [6] 0.081 | [7] -0.045 | [8] -0.036 | [9] -0.022 | [10] 0.006 | [11] 0.016 | [12] -0.001 | [13] -0.018 | [14] 0.03 | [15] -0.013 | [16] 0.035 | [17] 0.036 | [18] -0.035 | [19] -0.009 | [20] -0.011

Reprinted at random: 2 records from the list
OXR1 (UniProt Q8N573)
inactive: [1] 0.048 | [2] 0.016 | [3] -0.002 | [4] -0.019 | [5] -0.035 | [6] -0.077 | [7] -0.004 | [8] 0.023 | [10] 0.009 | [11] 0.005 | [12] -0.003 | [13] 0.005 | [14] 0.052 | [15] -0.025 | [16] 0.023 | [17] -0.013 | [18] -0.062 | [19] 0.012 | [20] 0.027

OXNAD1 (UniProt Q96HP4)
inactive: [1] -0.009 | [2] 0.072 | [3] 0.022 | [4] -0.046 | [5] -0.005 | [6] 0.078 | [7] -0.03 | [8] 0.002 | [9] 0.002 | [10] 0.075 | [11] 0.011 | [12] 0.008 | [13] -0.024 | [14] 0.022 | [15] -0.065 | [16] 0.024 | [17] -0.029 | [18] -0.041 | [19] -0.001 | [20] 0.01

Next records follow:

OXSR1 (UniProt O95747)
active: [3] -0.341
inactive: [1] 0.014 | [2] -0.022 | [4] 0.045 | [5] -0.115 | [6] -0.111 | [7] -0.05 | [8] 0.026 | [10] 0.106 | [11] 0.019 | [12] -0.11 | [13] 0.014 | [14] 0.004 | [15] -0.021 | [16] 0.037 | [17] 0.038 | [18] 0.007 | [19] 0.055 | [20] 0.035

NSMCE4A (UniProt Q9NXX6)
inactive: [1] 0.077 | [2] -0.116 | [3] -0.059 | [4] 0.051 | [5] 0.003 | [6] 0.252 | [7] 0.008 | [8] 0 | [10] -0.124 | [11] 0 | [12] 0.022 | [13] -0.035 | [14] -0.053 | [15] 0.037 | [16] 0.088 | [17] -0.041 | [18] -0.016 | [19] -0.072 | [20] 0.196

OXSM (UniProt Q9NWU1)
active: [19] -0.234
inactive: [1] 0.032 | [2] 0.064 | [3] 0.017 | [4] 0.008 | [5] 0.031 | [6] 0.041 | [7] -0.025 | [8] -0.067 | [10] -0.011 | [11] -0.023 | [12] -0.057 | [13] 0.023 | [14] 0.003 | [15] -0.061 | [16] 0.01 | [17] 0.045 | [18] -0.03 | [20] -0.034

NUB1 (UniProt Q9Y5A7)
inactive: [1] -0.039 | [2] -0.012 | [3] -0.123 | [4] 0.042 | [5] -0.072 | [6] -0.28 | [7] 0.167 | [8] 0.192 | [9] -0.015 | [10] -0.169 | [11] 0 | [12] -0.035 | [13] 0.034 | [14] -0.057 | [15] 0.161 | [16] 0.029 | [17] 0.038 | [18] 0.041 | [19] 0.065 | [20] 0.039

OGFR (UniProt Q9NZT2)
inactive: [1] -0.023 | [2] 0.001 | [3] -0.235 | [4] -0.014 | [5] 0.109 | [6] -0.028 | [7] -0.008 | [8] 0.149 | [10] 0.044 | [11] -0.023 | [12] 0.018 | [13] -0.022 | [14] 0.035 | [15] 0.057 | [16] 0.075 | [17] 0.002 | [18] 0.01 | [19] -0.02 | [20] 0.125

OARD1 (UniProt Q9Y530)
inactive: [1] -0.192 | [2] -0.048 | [3] -0.062 | [4] 0.127 | [5] -0.104 | [6] -0.038 | [7] 0.042 | [8] -0.066 | [9] 0.016 | [10] 0.08 | [11] 0.044 | [12] -0.044 | [13] 0.002 | [14] 0.137 | [15] 0.058 | [16] 0.077 | [17] 0.068 | [18] 0.232 | [19] 0.076 | [20] 0.144
